According to the supplement of paper PMC8728848:
The other results are listed elsewhere or left out.

Assays:
Assay in all cases: glycan array binding signal (z-score within array); higher = stronger binding
Details in all cases: glycan notation: IUPAC condensed, linker removed
[1] = molecular target: Neu5Ac(a2-3)Gal(b1-4)GlcNAc6S
Summary of the method: (§1)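 Arrays were curated from the Consortium for Functional Glycomics database, 3228 in total, and kept only where the protein sequence was available. Binding is expressed as a within-array Z-score. This score was averaged across arrays of the same protein sequence at different concentrations or buffers and across linkers, and negative values can be read as non-binding.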

[2] = molecular target: Neu5Ac(a2-3)Gal(b1-4)[Fuc(a1-3)]GlcNAc
Summary of the method: as §1

[3] = molecular target: Neu5Ac(a2-3)Gal(b1-4)[Fuc(a1-3)]GlcNAc(b1-3)Gal
Summary of the method: as §1

[4] = molecular target: Neu5Ac(a2-3)Gal(b1-4)[Fuc(a1-3)]GlcNAc(b1-3)Gal(b1-4)GlcNAc
Summary of the method: as §1

[5] = molecular target: Neu5Ac(a2-3)Gal(b1-4)[Fuc(a1-3)]GlcNAc(b1-3)Gal(b1-4)[Fuc(a1-3)]GlcNAc(b1-3)Gal(b1-4)[Fuc(a1-3)]GlcNAc
Summary of the method: as §1

[6] = molecular target: Neu5Ac(a2-3)Gal(b1-4)[Fuc(a1-3)]GlcNAc(b1-6)[Gal(b1-3)]GalNAc
Summary of the method: as §1

[7] = molecular target: Neu5Ac(a2-3)Gal(b1-4)[Fuc(a1-3)]GlcNAc6S
Summary of the method: as §1

[8] = molecular target: Neu5Ac(a2-3)Gal6S(b1-4)GlcNAc
Summary of the method: as §1

[9] = molecular target: Neu5Ac(a2-3)Gal6S(b1-4)[Fuc(a1-3)]GlcNAc
Summary of the method: as §1

Neu5Ac(a2-3)GalNAc = molecular target: Neu5Ac(a2-3)GalNAc
Summary of the method: as §1

[10] = molecular target: Neu5Ac(a2-3)GalNAc(b1-4)GlcNAc
Summary of the method: as §1

[11] = molecular target: Neu5Ac(a2-3)[GalNAc(b1-4)]Gal(b1-4)Glc
Summary of the method: as §1

[12] = molecular target: Neu5Ac(a2-3)[GalNAc(b1-4)]Gal(b1-4)GlcNAc
Summary of the method: as §1

[13] = molecular target: Neu5Ac(a2-3)[Neu5Ac(a2-6)]GalNAc
Summary of the method: as §1

Neu5Ac(a2-6)Gal = molecular target: Neu5Ac(a2-6)Gal
Summary of the method: as §1

Neu5Ac(a2-6)Gal(b1-4)Glc = molecular target: Neu5Ac(a2-6)Gal(b1-4)Glc
Summary of the method: as §1

[14] = molecular target: Neu5Ac(a2-6)Gal(b1-4)GlcNAc
Summary of the method: as §1

[15] = molecular target: Neu5Ac(a2-6)Gal(b1-4)GlcNAc(b1-2)Man(a1-3)[Gal(b1-4)GlcNAc(b1-2)Man(a1-6)]Man(b1-4)GlcNAc(b1-4)GlcNAc
Summary of the method: as §1

[16] = molecular target: Neu5Ac(a2-6)Gal(b1-4)GlcNAc(b1-2)Man(a1-3)[GlcNAc(b1-2)Man(a1-6)]Man(b1-4)GlcNAc(b1-4)GlcNAc
Summary of the method: as §1

[17] = molecular target: Neu5Ac(a2-6)Gal(b1-4)GlcNAc(b1-2)Man(a1-3)[GlcNAc(b1-2)Man(b1-4)GlcNAc(b1-2)Man(a1-6)]Man(b1-4)GlcNAc(b1-4)GlcNAc
Summary of the method: as §1

[18] = molecular target: Neu5Ac(a2-6)Gal(b1-4)GlcNAc(b1-2)Man(a1-3)[Neu5Ac(a2-6)Gal(b1-4)GlcNAc(b1-2)Man(a1-6)]Man(b1-4)GlcNAc(b1-4)GlcNAc
Summary of the method: as §1

[19] = molecular target: Neu5Ac(a2-6)Gal(b1-4)GlcNAc(b1-2)Man(a1-6)[Gal(b1-4)GlcNAc(b1-2)Man(a1-3)]Man(b1-4)GlcNAc(b1-4)GlcNAc
Summary of the method: as §1

[20] = molecular target: Neu5Ac(a2-6)Gal(b1-4)GlcNAc(b1-2)Man(a1-6)[GlcNAc(b1-2)Man(a1-3)]Man(b1-4)GlcNAc(b1-4)GlcNAc
Summary of the method: as §1

[21] = molecular target: Neu5Ac(a2-6)Gal(b1-4)GlcNAc(b1-3)Gal(b1-4)GlcNAc
Summary of the method: as §1

[22] = molecular target: Neu5Ac(a2-6)Gal(b1-4)GlcNAc(b1-3)Gal(b1-4)[Fuc(a1-3)]GlcNAc(b1-3)Gal(b1-4)[Fuc(a1-3)]GlcNAc
Summary of the method: as §1

[23] = molecular target: Neu5Ac(a2-6)Gal(b1-4)GlcNAc6S
Summary of the method: as §1

Neu5Ac(a2-6)GalNAc = molecular target: Neu5Ac(a2-6)GalNAc
Summary of the method: as §1

[24] = molecular target: Neu5Ac(a2-6)GalNAc(b1-4)GlcNAc
Summary of the method: as §1

Neu5Ac(a2-8)Neu5Ac = molecular target: Neu5Ac(a2-8)Neu5Ac
Summary of the method: as §1

[25] = molecular target: Neu5Ac(a2-8)Neu5Ac(a2-3)Gal(b1-4)Glc
Summary of the method: as §1

[26] = molecular target: Neu5Ac(a2-8)Neu5Ac(a2-3)[GalNAc(b1-4)]Gal(b1-4)Glc
Summary of the method: as §1

[27] = molecular target: Neu5Ac(a2-8)Neu5Ac(a2-8)Neu5Ac
Summary of the method: as §1

[28] = molecular target: Neu5Ac(a2-8)Neu5Ac(a2-8)Neu5Ac(a2-3)Gal(b1-4)Glc
Summary of the method: as §1

[29] = molecular target: Neu5Ac(a2-8)Neu5Ac(a2-8)Neu5Ac(a2-3)[GalNAc(b1-4)]Gal(b1-4)Glc
Summary of the method: as §1

[30] = molecular target: Neu5Ac(a2-8)Neu5Ac(a2-8)Neu5Ac(a2-8)Neu5Ac(a2-3)[GalNAc(b1-4)]Gal(b1-4)Glc
Summary of the method: as §1

[31] = molecular target: Neu5Ac(b2-6)Gal(b1-4)GlcNAc
Summary of the method: as §1

Neu5Ac(b2-6)GalNAc = molecular target: Neu5Ac(b2-6)GalNAc
Summary of the method: as §1

[32] = molecular target: Neu5Ac9Ac(a2-6)Gal(b1-4)GlcNAc
Summary of the method: as §1

[33] = molecular target: Neu5Gc(a2-3)Gal(b1-3)GlcNAc
Summary of the method: as §1

[34] = molecular target: Neu5Gc(a2-3)Gal(b1-3)[Fuc(a1-4)]GlcNAc
Summary of the method: as §1

Neu5Gc(a2-3)Gal(b1-4)Glc = molecular target: Neu5Gc(a2-3)Gal(b1-4)Glc
Summary of the method: as §1

[35] = molecular target: Neu5Gc(a2-3)Gal(b1-4)GlcNAc
Summary of the method: as §1

[36] = molecular target: Neu5Gc(a2-3)Gal(b1-4)[Fuc(a1-3)]GlcNAc
Summary of the method: as §1

[37] = molecular target: Neu5Gc(a2-6)Gal(b1-4)GlcNAc
Summary of the method: as §1

Neu5Gc(a2-6)GalNAc = molecular target: Neu5Gc(a2-6)GalNAc
Summary of the method: as §1

B1: SLLPI (Homo sapiens), Q8IXA5 (protein)
chain: MVSALRGAPLIRVHSSPVSSPSVSGPRRLVSCLSSQSSALSQSGGGSTSAAGIEARSRALRRRWCPAGIMLLALVCLLSCLLPSSEAKLYGRCELARVLHDFGLDGYRGYSLADWVCLAYFTSGFNAAALDYEADGSTNNGIFQINSRRWCSNLTPNVPNVCRMYCSDLLNPNLKDTVICAMKITQEPQGLGYWEAWRHHCQGKDLTEWVDGCDF
[1]
  glycan array binding signal (z-score): 0.437
[2]
  glycan array binding signal (z-score): -0.047
[3]
  glycan array binding signal (z-score): -0.234
[4]
  glycan array binding signal (z-score): 0.654
[5]
  glycan array binding signal (z-score): 0.311
[6]
  glycan array binding signal (z-score): 0.494
[7]
  glycan array binding signal (z-score): 0.031
[8]
  glycan array binding signal (z-score): -0.261
[9]
  glycan array binding signal (z-score): -0.072
Neu5Ac(a2-3)GalNAc
  glycan array binding signal (z-score): -0.101
[10]
  glycan array binding signal (z-score): -0.64
[11]
  glycan array binding signal (z-score): -0.288
[12]
  glycan array binding signal (z-score): -0.532
[13]
  glycan array binding signal (z-score): 0.313
Neu5Ac(a2-6)Gal
  glycan array binding signal (z-score): 0.171
Neu5Ac(a2-6)Gal(b1-4)Glc
  glycan array binding signal (z-score): -0.06
[14]
  glycan array binding signal (z-score): -0.117
[15]
  glycan array binding signal (z-score): 0.118
[16]
  glycan array binding signal (z-score): -0.345
[17]
  glycan array binding signal (z-score): 0.145
[18]
  glycan array binding signal (z-score): 0.032
[19]
  glycan array binding signal (z-score): -0.306
[20]
  glycan array binding signal (z-score): -0.255
[21]
  glycan array binding signal (z-score): 0.493
[22]
  glycan array binding signal (z-score): -0.206
[23]
  glycan array binding signal (z-score): 0.03
Neu5Ac(a2-6)GalNAc
  glycan array binding signal (z-score): -0.41
[24]
  glycan array binding signal (z-score): -0.697
Neu5Ac(a2-8)Neu5Ac
  glycan array binding signal (z-score): -0.007
[25]
  glycan array binding signal (z-score): -0.094
[26]
  glycan array binding signal (z-score): 0.102
[27]
  glycan array binding signal (z-score): -0.009
[28]
  glycan array binding signal (z-score): -0.507
[29]
  glycan array binding signal (z-score): 0.054
[30]
  glycan array binding signal (z-score): 0.298
[31]
  glycan array binding signal (z-score): -0.505
Neu5Ac(b2-6)GalNAc
  glycan array binding signal (z-score): -0.39
[32]
  glycan array binding signal (z-score): -0.472
[33]
  glycan array binding signal (z-score): 0.123
[34]
  glycan array binding signal (z-score): 0.002
Neu5Gc(a2-3)Gal(b1-4)Glc
  glycan array binding signal (z-score): 0.335
[35]
  glycan array binding signal (z-score): -0.286
[36]
  glycan array binding signal (z-score): -0.339
[37]
  glycan array binding signal (z-score): -0.251
Neu5Gc(a2-6)GalNAc
  glycan array binding signal (z-score): -0.28
